Values from PubChem BioAssay AID686938 (Drosophila RNAi Screening Center, 2013).
Assay: 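Fly genes required for calcium entry once internal stores are emptied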 (primary screen). System: Drosophila S2R+ cells. Reagents: long dsRNA against Drosophila genes, about 0.25 µg dsRNA per well, roughly 10,000 cells. Timing: 5 days of knock-down before the calcium assay. Conditions: thapsigargin (SERCA pump blocker) to empty calcium stores; entry signal taken 4 min after adding it. Measurement: 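Per-well fluo-4 fluorescence in two replicates, unnormalised, measured in resting cells and 4 min after store depletion by the SERCA blocker thapsigargin; ratio of the two present in few wells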. Direction: calcium entry signal: higher = stronger calcium signal after store depletion; resting calcium signal: higher = higher resting calcium signal. Rule for the call: 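Called when the plate z-score of the entry-to-rest ratio, mean of duplicates, falls below −3; wells with low overall dye signal (Fmax z below −2) or more than five off-targets excluded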. Calls: active = strongly reduced calcium entry; inactive = no strong reduction.
In all, the deposit lists about 23,000 reagents; this is an unselected part of those with a known target gene and a result. Of all reagents, 75 (0.33%) are marked active. 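Raw plate signals without normalisation; calls rest on plate z-scores that were not deposited; ratio present for only 364 wells.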 Reagents against one gene are numbered here. No sequences are given here. The record does not give: the dose of the treatment.

{"gene knocked down": "Bet1", "dsRNA no.": 1, "calcium entry signal, replicate 1 (fluorescence units)": 1.61e7, "calcium entry signal, replicate 2 (fluorescence units)": 2.81e7, "resting calcium signal, replicate 1 (fluorescence units)": 9.75e6, "resting calcium signal, replicate 2 (fluorescence units)": 1.45e7, "Outcome": "inactive"}
{"gene knocked down": "Mdr50", "dsRNA no.": 1, "calcium entry signal, replicate 1 (fluorescence units)": 3.89e7, "calcium entry signal, replicate 2 (fluorescence units)": 3.62e7, "resting calcium signal, replicate 1 (fluorescence units)": 2.14e7, "resting calcium signal, replicate 2 (fluorescence units)": 1.68e7, "Outcome": "inactive"}
{"gene knocked down": "Moca-cyp", "dsRNA no.": 1, "calcium entry signal, replicate 1 (fluorescence units)": 3.11e7, "calcium entry signal, replicate 2 (fluorescence units)": 5.05e7, "resting calcium signal, replicate 1 (fluorescence units)": 1.50e7, "resting calcium signal, replicate 2 (fluorescence units)": 2.22e7, "Outcome": "inactive"}
{"gene knocked down": "CG5770", "dsRNA no.": 1, "calcium entry signal, replicate 1 (fluorescence units)": 3.52e7, "calcium entry signal, replicate 2 (fluorescence units)": 3.76e7, "resting calcium signal, replicate 1 (fluorescence units)": 1.68e7, "resting calcium signal, replicate 2 (fluorescence units)": 1.79e7, "Outcome": "inactive"}
{"gene knocked down": "Crys", "dsRNA no.": 1, "calcium entry signal, replicate 1 (fluorescence units)": 4.28e7, "resting calcium signal, replicate 1 (fluorescence units)": 1.94e7, "Outcome": "inactive"}
{"gene knocked down": "CG17010", "dsRNA no.": 1, "calcium entry signal, replicate 1 (fluorescence units)": 4.68e7, "resting calcium signal, replicate 1 (fluorescence units)": 2.29e7, "Outcome": "inactive"}
{"gene knocked down": "CG7728", "dsRNA no.": 1, "calcium entry signal, replicate 1 (fluorescence units)": 2.28e7, "calcium entry signal, replicate 2 (fluorescence units)": 3.46e7, "resting calcium signal, replicate 1 (fluorescence units)": 1.24e7, "resting calcium signal, replicate 2 (fluorescence units)": 2.58e7, "Outcome": "inactive"}
{"gene knocked down": "Cpr47Ee", "dsRNA no.": 1, "calcium entry signal, replicate 1 (fluorescence units)": 1.72e7, "calcium entry signal, replicate 2 (fluorescence units)": 2.26e7, "resting calcium signal, replicate 1 (fluorescence units)": 1.07e7, "resting calcium signal, replicate 2 (fluorescence units)": 1.31e7, "Outcome": "inactive"}
{"gene knocked down": "Cpr47Ee", "dsRNA no.": 2, "calcium entry signal, replicate 1 (fluorescence units)": 4.07e7, "calcium entry signal, replicate 2 (fluorescence units)": 2.81e7, "resting calcium signal, replicate 1 (fluorescence units)": 2.02e7, "resting calcium signal, replicate 2 (fluorescence units)": 1.38e7, "Outcome": "inactive"}
{"gene knocked down": "CG43085", "dsRNA no.": 1, "calcium entry signal, replicate 1 (fluorescence units)": 3.45e7, "calcium entry signal, replicate 2 (fluorescence units)": 3.02e7, "resting calcium signal, replicate 1 (fluorescence units)": 1.60e7, "resting calcium signal, replicate 2 (fluorescence units)": 1.60e7, "Outcome": "inactive"}
{"gene knocked down": "Pkc98E", "dsRNA no.": 1, "calcium entry signal, replicate 1 (fluorescence units)": 2.90e7, "calcium entry signal, replicate 2 (fluorescence units)": 3.19e7, "resting calcium signal, replicate 1 (fluorescence units)": 1.32e7, "resting calcium signal, replicate 2 (fluorescence units)": 1.49e7, "Outcome": "inactive"}
{"gene knocked down": "CG42713", "dsRNA no.": 1, "calcium entry signal, replicate 1 (fluorescence units)": 3.69e7, "calcium entry signal, replicate 2 (fluorescence units)": 5.01e7, "resting calcium signal, replicate 1 (fluorescence units)": 1.91e7, "resting calcium signal, replicate 2 (fluorescence units)": 2.13e7, "Outcome": "inactive"}
{"gene knocked down": "CG11807", "dsRNA no.": 1, "calcium entry signal, replicate 1 (fluorescence units)": 2.28e7, "calcium entry signal, replicate 2 (fluorescence units)": 2.40e7, "resting calcium signal, replicate 1 (fluorescence units)": 1.00e7, "resting calcium signal, replicate 2 (fluorescence units)": 1.21e7, "Outcome": "inactive"}
{"gene knocked down": "CG14230", "dsRNA no.": 1, "calcium entry signal, replicate 1 (fluorescence units)": 2.44e7, "calcium entry signal, replicate 2 (fluorescence units)": 2.10e7, "resting calcium signal, replicate 1 (fluorescence units)": 1.29e7, "resting calcium signal, replicate 2 (fluorescence units)": 1.02e7, "Outcome": "inactive"}
{"gene knocked down": "AdipoR", "dsRNA no.": 1, "calcium entry signal, replicate 1 (fluorescence units)": 3.55e7, "calcium entry signal, replicate 2 (fluorescence units)": 2.83e7, "resting calcium signal, replicate 1 (fluorescence units)": 1.66e7, "resting calcium signal, replicate 2 (fluorescence units)": 1.38e7, "Outcome": "inactive"}
{"gene knocked down": "CG42656", "dsRNA no.": 1, "calcium entry signal, replicate 1 (fluorescence units)": 3.37e7, "calcium entry signal, replicate 2 (fluorescence units)": 4.16e7, "resting calcium signal, replicate 1 (fluorescence units)": 1.72e7, "resting calcium signal, replicate 2 (fluorescence units)": 2.42e7, "Outcome": "inactive"}
{"gene knocked down": "CG14868", "dsRNA no.": 1, "calcium entry signal, replicate 1 (fluorescence units)": 3.24e7, "calcium entry signal, replicate 2 (fluorescence units)": 2.53e7, "resting calcium signal, replicate 1 (fluorescence units)": 1.64e7, "resting calcium signal, replicate 2 (fluorescence units)": 1.33e7, "Outcome": "inactive"}
{"gene knocked down": "CG1909", "dsRNA no.": 1, "calcium entry signal, replicate 1 (fluorescence units)": 5.23e7, "calcium entry signal, replicate 2 (fluorescence units)": 4.99e7, "resting calcium signal, replicate 1 (fluorescence units)": 2.30e7, "resting calcium signal, replicate 2 (fluorescence units)": 2.28e7, "Outcome": "inactive"}
{"gene knocked down": "Gr57a", "dsRNA no.": 1, "calcium entry signal, replicate 1 (fluorescence units)": 3.17e7, "calcium entry signal, replicate 2 (fluorescence units)": 2.96e7, "resting calcium signal, replicate 1 (fluorescence units)": 1.52e7, "resting calcium signal, replicate 2 (fluorescence units)": 1.48e7, "Outcome": "inactive"}
{"gene knocked down": "sut2", "dsRNA no.": 1, "calcium entry signal, replicate 1 (fluorescence units)": 4.36e7, "calcium entry signal, replicate 2 (fluorescence units)": 3.37e7, "resting calcium signal, replicate 1 (fluorescence units)": 1.91e7, "resting calcium signal, replicate 2 (fluorescence units)": 1.59e7, "Outcome": "inactive"}
{"gene knocked down": "CG17029", "dsRNA no.": 1, "calcium entry signal, replicate 1 (fluorescence units)": 3.81e7, "calcium entry signal, replicate 2 (fluorescence units)": 6.01e7, "resting calcium signal, replicate 1 (fluorescence units)": 2.08e7, "resting calcium signal, replicate 2 (fluorescence units)": 2.44e7, "Outcome": "inactive"}
{"gene knocked down": "CR31700", "dsRNA no.": 1, "calcium entry signal, replicate 1 (fluorescence units)": 2.86e7, "calcium entry signal, replicate 2 (fluorescence units)": 5.61e7, "resting calcium signal, replicate 1 (fluorescence units)": 1.38e7, "resting calcium signal, replicate 2 (fluorescence units)": 1.99e7, "Outcome": "inactive"}
{"gene knocked down": "Orc2", "dsRNA no.": 1, "calcium entry signal, replicate 1 (fluorescence units)": 3.11e7, "calcium entry signal, replicate 2 (fluorescence units)": 3.46e7, "resting calcium signal, replicate 1 (fluorescence units)": 1.33e7, "resting calcium signal, replicate 2 (fluorescence units)": 1.54e7, "Outcome": "inactive"}
{"gene knocked down": "CG5866", "dsRNA no.": 1, "calcium entry signal, replicate 1 (fluorescence units)": 3.69e7, "calcium entry signal, replicate 2 (fluorescence units)": 5.95e7, "resting calcium signal, replicate 1 (fluorescence units)": 1.95e7, "resting calcium signal, replicate 2 (fluorescence units)": 7.06e7, "Outcome": "inactive"}
{"gene knocked down": "CheB93a", "dsRNA no.": 1, "calcium entry signal, replicate 1 (fluorescence units)": 4.20e7, "calcium entry signal, replicate 2 (fluorescence units)": 3.60e7, "resting calcium signal, replicate 1 (fluorescence units)": 5.28e7, "resting calcium signal, replicate 2 (fluorescence units)": 1.66e7, "Outcome": "inactive"}
{"gene knocked down": "xmas-1 (retired record)", "dsRNA no.": 1, "calcium entry signal, replicate 1 (fluorescence units)": 4.86e7, "calcium entry signal, replicate 2 (fluorescence units)": 2.97e7, "resting calcium signal, replicate 1 (fluorescence units)": 2.40e7, "resting calcium signal, replicate 2 (fluorescence units)": 1.44e7, "Outcome": "inactive"}
{"gene knocked down": "CG7912", "dsRNA no.": 1, "calcium entry signal, replicate 1 (fluorescence units)": 4.17e7, "calcium entry signal, replicate 2 (fluorescence units)": 5.53e7, "resting calcium signal, replicate 1 (fluorescence units)": 2.13e7, "resting calcium signal, replicate 2 (fluorescence units)": 2.37e7, "Outcome": "inactive"}

Part of the list above in another layout.
{"gene knocked down":"CG14230","dsRNA no.":1,"calcium entry signal, replicate 1 (fluorescence units)":2.44e7,"calcium entry signal, replicate 2 (fluorescence units)":2.10e7,"resting calcium signal, replicate 1 (fluorescence units)":1.29e7,"resting calcium signal, replicate 2 (fluorescence units)":1.02e7,"Outcome":"inactive"}
{"gene knocked down":"AdipoR","dsRNA no.":1,"calcium entry signal, replicate 1 (fluorescence units)":3.55e7,"calcium entry signal, replicate 2 (fluorescence units)":2.83e7,"resting calcium signal, replicate 1 (fluorescence units)":1.66e7,"resting calcium signal, replicate 2 (fluorescence units)":1.38e7,"Outcome":"inactive"}
{"gene knocked down":"CG42656","dsRNA no.":1,"calcium entry signal, replicate 1 (fluorescence units)":3.37e7,"calcium entry signal, replicate 2 (fluorescence units)":4.16e7,"resting calcium signal, replicate 1 (fluorescence units)":1.72e7,"resting calcium signal, replicate 2 (fluorescence units)":2.42e7,"Outcome":"inactive"}
